Experimental findings from article PMC7819943, “Rice protein-binding microarrays: a tool to detect cis-acting elements near promoter regions in rice” are described below.

By UniProt entry, the sequences of proteins in these tests, tags left out.
UniProt Q0JBA9, entry or part of it: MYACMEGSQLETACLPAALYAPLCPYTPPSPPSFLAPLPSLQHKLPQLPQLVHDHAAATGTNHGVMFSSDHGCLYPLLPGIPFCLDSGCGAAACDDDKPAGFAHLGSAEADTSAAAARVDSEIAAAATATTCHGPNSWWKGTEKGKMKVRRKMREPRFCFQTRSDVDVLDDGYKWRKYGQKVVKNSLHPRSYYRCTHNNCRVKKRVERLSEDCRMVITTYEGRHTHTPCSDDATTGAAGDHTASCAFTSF

The list shows a part of the results.

The experiment addresses OsWRKY34 (Oryza sativa, UniProt Q0JBA9 1-250). Kind of experiment: protein-binding microarray (RPBM); PBS, 2% BSA, 51.3 ng/ul salmon testes DNA, 50 uM zinc acetate, 200 nM TF, 25 C, 1 h; high values mean tight binding. To be noted: protein: recombinant; tags: N-terminal polyhistidine and DsRed monomer fusion (pET32a); label: CyDye5-dUTP incorporated in the synthesized complementary strand; 3' TTTTT single-stranded linker to array surface; dsDNA, one strand shown. The essentials: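 For the binding signal, per-feature fluorescence intensity was read in arbitrary units on an Axon 4000B scanner. Before scanning, a 2% BSA-blocked custom Agilent array made double-stranded with Cy5-dUTP was washed after 1 h at 25 °C with 200 nM protein and 50 µM zinc acetate. The proteins were Ni–NTA-purified transcription factors with N-terminal polyhistidine and DsRed fusions, expressed in E. coli BL21-CodonPlus.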
Consider “GCTTTCTCTCTCTCGCCTCGTTAAAATCTCTCTTCCACCCCGGAGTCACCTAGTGCAG”, for which the binding signal is 8180 fluorescence intensity (a.u.).
For the sequence “TGACGACGCCATTGACTTTTGAACACATGTTTGACCATTCCGGAGTCACCTAGTGCAG”, the binding signal was 15900 fluorescence intensity (a.u.).
The figure for “GCAAAAGCCATCACCACCACCACCACCGCCTCTTCTTCCTCGGAGTCACCTAGTGCAG” is 9020 fluorescence intensity (a.u.); for “TTGCATGTTGAGTTTTGTGTGTTTAATGGGTTGATGTGGCCGGAGTCACCTAGTGCAG” it is 8620 fluorescence intensity (a.u.).
The figure for “CTCTCCTCTACTTTCTTTGCCAGCGCCACGACCCCAAGAACGGAGTCACCTAGTGCAG” is 8710 fluorescence intensity (a.u.).
The figure for “CGGCTAGGGACGGGGACGACGCCGGAGTGGGTGGGGAAGGCGGAGTCACCTAGTGCAG” is 8680 fluorescence intensity (a.u.); for “GATTTTTAGTGAATATAATGAAATTTCACAGGGGAGGGGCCGGAGTCACCTAGTGCAG” it is 13400 fluorescence intensity (a.u.).
With “ACCACCATATGCTACTTCTTTCTTAATTTTGTTGTAATTTCGGAGTCACCTAGTGCAG”, the binding signal was 8200 fluorescence intensity (a.u.).
With “GGCGCCGGTGGCGCGTTGGTGCCCCTCATCATCTCCTTGTCGGAGTCACCTAGTGCAG” the figure was 8680 fluorescence intensity (a.u.); with “CTCACTATCTTCATTTGTCCAAACTCTAATAATATAGTATCGGAGTCACCTAGTGCAG”, 8200 fluorescence intensity (a.u.).
Turning to “TTTCCTTTGAGTCTATCCCTATCATTTAATTCCTGCGTTTCGGAGTCACCTAGTGCAG”, the binding signal is 8120 fluorescence intensity (a.u.).
For “TCTTGCCCATCCTGCAACTCTTGCTACTATACTGCACCAACGGAGTCACCTAGTGCAG”, the binding signal is 8810 fluorescence intensity (a.u.).
With “CCATTTCCCCTTCATGTTCGTATAGTAATTTGCCAACAATCGGAGTCACCTAGTGCAG”, the binding signal was 11400 fluorescence intensity (a.u.).
Take “TCCTTCACCCAACTCTTCACTTATCCCCGTTCTATCATTTCGGAGTCACCTAGTGCAG”: the binding signal is 11700 fluorescence intensity (a.u.).
Regarding “CTGGCCGGTTGACCTCTTCTTCCAGGTAACCCTTCGCTTTCGGAGTCACCTAGTGCAG”, the binding signal is 9680 fluorescence intensity (a.u.).
Consider “ACCTAACCCTAATCAATCCATTTCCACCGAAACCGATCCCCGGAGTCACCTAGTGCAG”, for which the binding signal is 8070 fluorescence intensity (a.u.).
“TAACCCTACTTGTTATATACTTTCTCTTCCTCTTCCTCTTCGGAGTCACCTAGTGCAG”: the binding signal is 8030 fluorescence intensity (a.u.).
The figure for “GAACTACAAAGGTACTACTGTCCTCATGCCCTACATACATCGGAGTCACCTAGTGCAG” is 8360 fluorescence intensity (a.u.).
Regarding “AATTTGTTTATATCGAGGGGTTGGAACAAGTCACTAATAGCGGAGTCACCTAGTGCAG”, the binding signal was 8480 fluorescence intensity (a.u.).
The figure for “GGACATGCGCTGTTACTTTCTTCGTGCCTTTTGTTTGATACGGAGTCACCTAGTGCAG” is 8800 fluorescence intensity (a.u.).
On to “ACGCGTCCTCCACTCCAGCCTGTGCCAACGAGACGAGGGACGGAGTCACCTAGTGCAG”, for which the binding signal is 8050 fluorescence intensity (a.u.).
The figure for “ATCTTATTTTTGCTTCAGCCTGATTTTAGTTTTCATTGGCCGGAGTCACCTAGTGCAG” is 8460 fluorescence intensity (a.u.); for “CTACTGGTCTCAACTCTCATCTATGCTGCTTCATGAGAACCGGAGTCACCTAGTGCAG” it is 9390 fluorescence intensity (a.u.).
Turning to “ATATTCTCATTTTCAGTCTGTTGCACTAATTTTGCTATTTCGGAGTCACCTAGTGCAG”, the binding signal was 12800 fluorescence intensity (a.u.).
In the case of “CTCTTCTACAAATTGGACTTTGGTTATTTAGCTGGAAACTCGGAGTCACCTAGTGCAG”, the binding signal is 8720 fluorescence intensity (a.u.).
With “CGTCTCCGTCTCCGTCTCCTACTCTTTCCTCCTCTTACAACGGAGTCACCTAGTGCAG”, the binding signal is 11700 fluorescence intensity (a.u.).
Regarding “CAATGATTCTATATAGTACACAACTACTCACCATCTTTTTCGGAGTCACCTAGTGCAG”, the binding signal is 9400 fluorescence intensity (a.u.).
“ATGGGTCATTTTGCCGCGCTTTTTTTTTCTGACTTTTCTTCGGAGTCACCTAGTGCAG”: the binding signal was 14200 fluorescence intensity (a.u.).
The figure for “CAACTTCATCTGTTGGTTTTGGATCGTTGGATGTGTCACACGGAGTCACCTAGTGCAG” is 8360 fluorescence intensity (a.u.); for “GCATTCCGTCCCGTGCTTAACGACAACCATGCACGGCCTGCGGAGTCACCTAGTGCAG” it is 8090 fluorescence intensity (a.u.).
Consider “CGCACTATCTTATACGGGTCATTAATTTTTTTTATAAAATCGGAGTCACCTAGTGCAG”, for which the binding signal was 8760 fluorescence intensity (a.u.).
For the sequence “ACCACCGCTTCCTCCCACCTCTACTCCATTCCTCTTTCTTCGGAGTCACCTAGTGCAG”, the binding signal is 10700 fluorescence intensity (a.u.).
For “GGGAGTAGTATTGTTCTAGATGACATGGCAACGGTATTTCCGGAGTCACCTAGTGCAG”, the binding signal was 9640 fluorescence intensity (a.u.).
On to “ATACTCTACATCGAATATTCCTTATTTTTAATTCTAAATTCGGAGTCACCTAGTGCAG”, for which the binding signal is 9750 fluorescence intensity (a.u.).
For “TCTCCATTTCTCCCGGCTTCCTCTTCTCCTCCTCCTATACCGGAGTCACCTAGTGCAG”, the binding signal was 9530 fluorescence intensity (a.u.).
For “ACATGTCCCTACTGGCTGCTCTGCCTACTGCTGCCCGGACCGGAGTCACCTAGTGCAG”, the binding signal was 8980 fluorescence intensity (a.u.).
On to “GCGGGCGGAGGAGCTCGGGCGTGGGCGGGGAGGGCGGATCCGGAGTCACCTAGTGCAG”, for which the binding signal was 20800 fluorescence intensity (a.u.).
For the sequence “GATGATTTGCTTACTGAATGTCTCGGGTATTTAGTTCCAACGGAGTCACCTAGTGCAG”, the binding signal is 8540 fluorescence intensity (a.u.).
With “AAACCAGACATTCTATATCCTCAGCTATTGAAACCGGACACGGAGTCACCTAGTGCAG” the figure was 8940 fluorescence intensity (a.u.); with “AGTTGGGCAGCAGTGGGTTGTGATATACTATGTGAATTATCGGAGTCACCTAGTGCAG”, 9100 fluorescence intensity (a.u.).
On to “ATCTCTCTTGCCATTCGCTTTAGCCTAACATACGGTGCCGCGGAGTCACCTAGTGCAG”, for which the binding signal was 9460 fluorescence intensity (a.u.).
With “TGGACACTATTACTCTCTATACATAAGACTTCGCTCTTTACGGAGTCACCTAGTGCAG” the figure was 8450 fluorescence intensity (a.u.).
